Some of the results follow.
Key:
Assay in all cases: log2 fold change, soluble protein after heating vs DMSO (PISA); higher = thermal stabilisation; K562 lysate, 10 uM; active = over 0.2 and 3.5 SD of the protein, either way, in both replicates (recomputed)
vemurafenib = compound: CCCS(=O)(=O)Nc1ccc(F)c(C(=O)c2c[nH]c3ncc(-c4ccc(Cl)cc4)cc23)c1F [vemurafenib]
In short: (§1)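 Dounce homogenisation of K562 pellets in PBS pH 7.4 with 1 mM MgCl2 produced a crude extract, used at 1 mg/mL protein. Exposure to 10 μM compound lasted 30 min, and aliquots were then heated for 3 min across 48°C-58°C, pooled and brought to 0.5% NP-40 at 4°C. The supernatant after 21,000xg for 90 min was quantified by TMTpro 16plex LC-MS/MS with channel sums equalised. Duplicate values are given as log-two fold change in thermal stability relative to solvent controls.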

Chains of the proteins cited; added tags and fusions are not shown. Lines headed by an entry give the natural chain unless they say otherwise; changes in a name come on top.
UniProt Q9BXP2: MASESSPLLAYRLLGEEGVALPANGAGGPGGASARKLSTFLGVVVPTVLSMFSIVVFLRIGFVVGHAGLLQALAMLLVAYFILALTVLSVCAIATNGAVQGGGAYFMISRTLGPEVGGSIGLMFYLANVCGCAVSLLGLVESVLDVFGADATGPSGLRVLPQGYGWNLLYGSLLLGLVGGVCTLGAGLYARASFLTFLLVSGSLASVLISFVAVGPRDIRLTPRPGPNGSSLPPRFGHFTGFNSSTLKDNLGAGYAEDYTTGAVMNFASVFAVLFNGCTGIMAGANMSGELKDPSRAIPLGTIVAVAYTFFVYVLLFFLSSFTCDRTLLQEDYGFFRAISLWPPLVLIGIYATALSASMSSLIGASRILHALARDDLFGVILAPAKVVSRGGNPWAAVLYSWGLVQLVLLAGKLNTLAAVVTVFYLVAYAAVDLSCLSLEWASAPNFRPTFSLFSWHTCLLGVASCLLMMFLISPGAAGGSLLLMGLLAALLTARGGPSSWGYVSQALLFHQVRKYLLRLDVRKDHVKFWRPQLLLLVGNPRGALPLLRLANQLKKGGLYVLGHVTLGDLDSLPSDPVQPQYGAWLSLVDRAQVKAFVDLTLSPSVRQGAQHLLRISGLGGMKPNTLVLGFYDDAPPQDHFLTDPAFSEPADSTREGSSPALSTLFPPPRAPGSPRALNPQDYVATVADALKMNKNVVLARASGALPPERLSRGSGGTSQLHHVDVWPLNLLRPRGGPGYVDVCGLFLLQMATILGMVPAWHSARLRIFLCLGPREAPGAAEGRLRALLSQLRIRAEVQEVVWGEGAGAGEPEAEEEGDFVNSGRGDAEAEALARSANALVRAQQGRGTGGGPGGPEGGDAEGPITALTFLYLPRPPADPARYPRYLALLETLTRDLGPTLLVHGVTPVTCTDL
UniProt P08697: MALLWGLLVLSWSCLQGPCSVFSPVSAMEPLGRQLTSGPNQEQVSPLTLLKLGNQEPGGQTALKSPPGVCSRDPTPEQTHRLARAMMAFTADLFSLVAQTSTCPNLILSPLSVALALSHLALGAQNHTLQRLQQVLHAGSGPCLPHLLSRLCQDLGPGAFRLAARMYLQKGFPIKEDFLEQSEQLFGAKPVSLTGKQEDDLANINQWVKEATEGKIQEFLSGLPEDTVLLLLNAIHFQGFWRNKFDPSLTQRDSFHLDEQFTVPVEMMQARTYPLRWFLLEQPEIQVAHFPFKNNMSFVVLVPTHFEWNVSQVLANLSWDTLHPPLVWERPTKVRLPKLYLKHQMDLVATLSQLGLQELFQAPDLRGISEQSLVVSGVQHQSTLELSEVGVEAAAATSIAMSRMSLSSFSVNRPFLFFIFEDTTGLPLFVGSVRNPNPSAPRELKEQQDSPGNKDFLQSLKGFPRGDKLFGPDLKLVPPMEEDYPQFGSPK
UniProt O43255: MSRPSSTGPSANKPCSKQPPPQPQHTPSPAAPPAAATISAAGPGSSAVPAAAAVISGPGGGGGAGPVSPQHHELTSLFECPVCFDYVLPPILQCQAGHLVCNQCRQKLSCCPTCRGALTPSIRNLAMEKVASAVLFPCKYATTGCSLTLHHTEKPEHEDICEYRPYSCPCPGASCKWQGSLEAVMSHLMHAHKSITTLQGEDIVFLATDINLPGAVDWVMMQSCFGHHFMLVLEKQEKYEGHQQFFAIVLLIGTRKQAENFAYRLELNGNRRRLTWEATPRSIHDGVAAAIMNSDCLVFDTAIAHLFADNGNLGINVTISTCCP
UniProt P78314: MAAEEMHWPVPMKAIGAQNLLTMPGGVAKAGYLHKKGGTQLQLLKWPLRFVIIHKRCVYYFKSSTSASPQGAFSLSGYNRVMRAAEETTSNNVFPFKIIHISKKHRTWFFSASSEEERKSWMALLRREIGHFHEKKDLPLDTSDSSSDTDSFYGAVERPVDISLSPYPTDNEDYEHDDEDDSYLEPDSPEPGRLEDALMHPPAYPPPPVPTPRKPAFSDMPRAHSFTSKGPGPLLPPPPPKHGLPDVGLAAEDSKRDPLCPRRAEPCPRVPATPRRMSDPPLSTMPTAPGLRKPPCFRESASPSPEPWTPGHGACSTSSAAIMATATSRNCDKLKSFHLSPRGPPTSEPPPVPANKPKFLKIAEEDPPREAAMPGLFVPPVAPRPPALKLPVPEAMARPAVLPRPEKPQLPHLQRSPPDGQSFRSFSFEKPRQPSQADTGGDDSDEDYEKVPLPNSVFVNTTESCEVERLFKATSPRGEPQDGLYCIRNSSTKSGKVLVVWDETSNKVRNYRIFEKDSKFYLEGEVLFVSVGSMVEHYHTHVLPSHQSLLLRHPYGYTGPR
UniProt Q8N697: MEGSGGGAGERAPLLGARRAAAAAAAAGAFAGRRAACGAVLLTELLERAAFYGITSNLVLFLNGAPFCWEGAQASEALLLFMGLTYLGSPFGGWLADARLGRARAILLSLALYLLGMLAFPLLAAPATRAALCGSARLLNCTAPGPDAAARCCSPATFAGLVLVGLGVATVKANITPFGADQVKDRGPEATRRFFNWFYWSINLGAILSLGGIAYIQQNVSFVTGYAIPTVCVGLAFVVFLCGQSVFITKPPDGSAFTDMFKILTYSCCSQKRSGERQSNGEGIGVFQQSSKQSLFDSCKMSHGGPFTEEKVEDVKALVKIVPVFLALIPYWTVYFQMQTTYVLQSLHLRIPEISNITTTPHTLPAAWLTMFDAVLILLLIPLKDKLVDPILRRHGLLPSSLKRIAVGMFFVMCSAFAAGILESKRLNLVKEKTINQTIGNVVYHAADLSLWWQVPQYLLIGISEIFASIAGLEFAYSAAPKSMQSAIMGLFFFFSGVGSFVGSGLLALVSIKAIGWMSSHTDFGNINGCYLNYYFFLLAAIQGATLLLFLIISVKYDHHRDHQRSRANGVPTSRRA
UniProt P12757: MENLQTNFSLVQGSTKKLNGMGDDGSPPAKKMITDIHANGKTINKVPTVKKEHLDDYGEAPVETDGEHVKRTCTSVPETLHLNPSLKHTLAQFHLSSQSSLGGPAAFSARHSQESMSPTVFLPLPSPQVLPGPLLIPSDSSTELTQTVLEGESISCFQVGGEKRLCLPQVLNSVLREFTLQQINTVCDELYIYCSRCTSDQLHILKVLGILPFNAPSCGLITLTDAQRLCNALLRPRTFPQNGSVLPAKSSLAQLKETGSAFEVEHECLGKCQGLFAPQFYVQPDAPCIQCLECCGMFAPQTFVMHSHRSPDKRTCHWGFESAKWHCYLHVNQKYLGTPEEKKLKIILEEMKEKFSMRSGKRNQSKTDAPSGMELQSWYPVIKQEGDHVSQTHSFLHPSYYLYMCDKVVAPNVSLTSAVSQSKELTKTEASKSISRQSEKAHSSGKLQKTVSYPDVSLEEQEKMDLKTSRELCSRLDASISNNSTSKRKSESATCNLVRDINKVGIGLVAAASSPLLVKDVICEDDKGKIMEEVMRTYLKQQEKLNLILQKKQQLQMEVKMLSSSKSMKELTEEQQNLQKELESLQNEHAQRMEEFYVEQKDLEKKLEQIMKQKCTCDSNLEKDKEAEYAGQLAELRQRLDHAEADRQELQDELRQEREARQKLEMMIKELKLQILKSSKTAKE
UniProt Q2VWA4: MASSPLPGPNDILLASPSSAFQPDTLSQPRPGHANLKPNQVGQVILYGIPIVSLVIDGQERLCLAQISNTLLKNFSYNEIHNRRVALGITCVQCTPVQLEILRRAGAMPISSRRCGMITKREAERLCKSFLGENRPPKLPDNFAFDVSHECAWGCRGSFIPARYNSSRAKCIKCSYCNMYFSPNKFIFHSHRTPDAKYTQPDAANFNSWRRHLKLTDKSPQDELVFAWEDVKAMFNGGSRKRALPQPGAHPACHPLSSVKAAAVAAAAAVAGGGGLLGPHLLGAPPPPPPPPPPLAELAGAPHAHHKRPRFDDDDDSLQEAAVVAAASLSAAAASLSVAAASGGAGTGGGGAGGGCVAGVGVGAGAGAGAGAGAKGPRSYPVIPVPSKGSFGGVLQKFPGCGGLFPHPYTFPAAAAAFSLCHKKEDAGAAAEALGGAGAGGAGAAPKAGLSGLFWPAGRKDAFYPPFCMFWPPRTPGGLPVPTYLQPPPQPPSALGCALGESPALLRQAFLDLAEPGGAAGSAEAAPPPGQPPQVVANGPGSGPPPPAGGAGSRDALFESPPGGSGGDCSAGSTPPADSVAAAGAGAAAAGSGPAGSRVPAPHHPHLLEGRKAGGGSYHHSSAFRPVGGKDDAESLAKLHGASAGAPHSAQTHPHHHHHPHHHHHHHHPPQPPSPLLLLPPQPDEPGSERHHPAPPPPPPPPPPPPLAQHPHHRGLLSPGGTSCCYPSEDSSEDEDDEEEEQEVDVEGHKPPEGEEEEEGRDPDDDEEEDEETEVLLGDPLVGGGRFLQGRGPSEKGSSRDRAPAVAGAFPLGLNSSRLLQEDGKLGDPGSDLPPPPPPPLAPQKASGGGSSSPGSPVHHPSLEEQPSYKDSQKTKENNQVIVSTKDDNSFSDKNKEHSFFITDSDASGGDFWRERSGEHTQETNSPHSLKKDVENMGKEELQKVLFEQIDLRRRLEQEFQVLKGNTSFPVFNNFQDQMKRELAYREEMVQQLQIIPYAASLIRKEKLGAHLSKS
UniProt Q13309, whole entry, looked up: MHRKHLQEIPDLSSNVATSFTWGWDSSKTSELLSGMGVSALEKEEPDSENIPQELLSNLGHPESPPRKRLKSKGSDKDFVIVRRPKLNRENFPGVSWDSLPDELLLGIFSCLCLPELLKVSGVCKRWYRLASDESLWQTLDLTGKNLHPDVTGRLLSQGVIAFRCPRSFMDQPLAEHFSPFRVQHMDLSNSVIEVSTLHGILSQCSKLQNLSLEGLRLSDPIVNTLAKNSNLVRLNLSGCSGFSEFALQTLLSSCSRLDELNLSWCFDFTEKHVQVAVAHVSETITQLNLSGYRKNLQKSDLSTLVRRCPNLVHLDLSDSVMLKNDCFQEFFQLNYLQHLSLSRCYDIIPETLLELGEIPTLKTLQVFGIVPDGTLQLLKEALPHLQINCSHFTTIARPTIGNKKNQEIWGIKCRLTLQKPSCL
UniProt Q8NC51: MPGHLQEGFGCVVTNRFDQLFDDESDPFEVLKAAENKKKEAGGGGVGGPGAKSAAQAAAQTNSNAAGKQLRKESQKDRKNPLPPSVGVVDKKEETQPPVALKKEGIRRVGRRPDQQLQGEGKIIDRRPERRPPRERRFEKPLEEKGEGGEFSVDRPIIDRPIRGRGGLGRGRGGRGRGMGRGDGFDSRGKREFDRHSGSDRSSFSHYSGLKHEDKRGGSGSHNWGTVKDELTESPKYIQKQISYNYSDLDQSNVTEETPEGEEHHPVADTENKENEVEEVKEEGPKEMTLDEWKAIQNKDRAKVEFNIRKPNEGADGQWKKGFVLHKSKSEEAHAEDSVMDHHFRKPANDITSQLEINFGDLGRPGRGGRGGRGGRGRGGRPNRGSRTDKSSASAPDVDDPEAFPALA
UniProt O75182: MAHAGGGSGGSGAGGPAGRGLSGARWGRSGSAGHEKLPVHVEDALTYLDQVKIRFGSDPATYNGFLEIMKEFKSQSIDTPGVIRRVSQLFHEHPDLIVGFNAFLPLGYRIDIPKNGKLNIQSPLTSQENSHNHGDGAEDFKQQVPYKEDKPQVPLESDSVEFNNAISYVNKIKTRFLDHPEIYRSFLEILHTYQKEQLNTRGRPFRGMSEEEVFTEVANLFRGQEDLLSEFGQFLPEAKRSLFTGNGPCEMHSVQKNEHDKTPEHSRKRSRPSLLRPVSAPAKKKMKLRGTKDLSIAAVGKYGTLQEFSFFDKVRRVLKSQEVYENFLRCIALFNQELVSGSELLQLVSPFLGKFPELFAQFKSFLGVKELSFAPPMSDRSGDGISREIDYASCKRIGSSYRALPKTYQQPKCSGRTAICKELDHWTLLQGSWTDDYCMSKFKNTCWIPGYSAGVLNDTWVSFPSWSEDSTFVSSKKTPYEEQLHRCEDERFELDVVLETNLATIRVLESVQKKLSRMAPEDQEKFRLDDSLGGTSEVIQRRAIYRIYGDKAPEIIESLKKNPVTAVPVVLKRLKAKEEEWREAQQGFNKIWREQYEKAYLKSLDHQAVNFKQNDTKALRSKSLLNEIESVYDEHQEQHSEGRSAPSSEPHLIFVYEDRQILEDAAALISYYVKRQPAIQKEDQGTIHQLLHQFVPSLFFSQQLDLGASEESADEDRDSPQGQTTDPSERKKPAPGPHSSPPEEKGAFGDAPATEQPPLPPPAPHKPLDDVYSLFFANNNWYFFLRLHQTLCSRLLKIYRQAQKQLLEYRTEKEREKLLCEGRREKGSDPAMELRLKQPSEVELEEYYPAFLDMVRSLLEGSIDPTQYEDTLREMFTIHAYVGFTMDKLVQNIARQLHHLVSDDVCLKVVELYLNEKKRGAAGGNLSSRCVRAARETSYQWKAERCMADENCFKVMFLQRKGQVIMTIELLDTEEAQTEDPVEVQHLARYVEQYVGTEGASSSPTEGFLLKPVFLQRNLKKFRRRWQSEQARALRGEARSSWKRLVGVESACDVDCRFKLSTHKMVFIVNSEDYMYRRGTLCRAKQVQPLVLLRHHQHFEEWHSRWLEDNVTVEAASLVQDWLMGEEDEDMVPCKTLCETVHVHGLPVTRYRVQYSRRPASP

[1] = compound: CCCS(=O)(=O)Nc1ccc(F)c(C(=O)c2c[nH]c3ncc(Cl)cc23)c1F
In short: as §1

barasertib = compound: CCN(CCCOc1ccc2c(Nc3cc(CC(=O)Nc4cccc(F)c4)[nH]n3)ncnc2c1)CCOP(=O)(O)O [barasertib]
In short: as §1

volasertib = compound: CC[C@@H]1C(=O)N(C)c2cnc(Nc3ccc(C(=O)N[C@H]4CC[C@H](N5CCN(CC6CC6)CC5)CC4)cc3OC)nc2N1C(C)C [volasertib]
In short: as §1

[2] = compound: CCn1c(C(=O)N(C2CC2)C2CC2)cc2c3c(ncn3C)c(Nc3cc(C)n(C)n3)nc21
In short: as §1

[3] = compound: CCn1cc(-c2ccnc3[nH]c(-c4cccc(CN(C)C)c4)cc23)c(-c2ccc(NC(=O)N(C)C)cc2)n1
In short: as §1

[4] = compound: CN1CCC(CNc2ccc3ncc(-c4cccc(OC(F)(F)F)c4)n3n2)CC1
In short: as §1

saracatinib = compound: CN1CCN(CCOc2cc(OC3CCOCC3)c3c(Nc4c(Cl)ccc5c4OCO5)ncnc3c2)CC1 [saracatinib]
In short: as §1

sotrastaurin = compound: CN1CCN(c2nc(C3=C(c4c[nH]c5ccccc45)C(=O)NC3=O)c3ccccc3n2)CC1 [sotrastaurin]
In short: as §1

[5] = compound: CC[C@@H]1C(=O)N(C)c2cnc(Nc3ccc(C(=O)NC4CCN(C)CC4)cc3OC)nc2N1C1CCCC1
In short: as §1

Measured: log2 fold change

SLC12A9 (UniProt Q9BXP2)
inactive: vemurafenib 0.012 | [1] 0.018 | barasertib 0.026 | volasertib -0.019 | [2] 0.051 | [3] -0.028 | [4] 0.059 | saracatinib 0.058 | sotrastaurin 0.032

SERPINF2 (UniProt P08697)
inactive: vemurafenib 0.001 | barasertib 0.053 | [5] 0.049 | [3] 0.606 | [4] -0.096 | sotrastaurin 0.055

SIAH2 (UniProt O43255)
inactive: vemurafenib 0.003 | [1] -0.026 | barasertib -0.043 | volasertib 0.124 | [3] -0.024 | [4] 0.087

SLC22A18 (UniProt Q96BI1)
inactive: vemurafenib 0.026 | [1] 0.046 | barasertib -0.059 | [5] 0.044 | volasertib 0.08 | [3] 0.026 | [4] -0.032 | sotrastaurin 0.073

SH3BP2 isoform 4 (UniProt P78314)
inactive: vemurafenib 0.087 | [1] -0.017 | barasertib -0.075 | volasertib -0.052 | [2] 0.029 | [3] -0.04 | [4] 0.089 | saracatinib 0.006 | sotrastaurin 0.02

SF1 (UniProt H7C0N4)
inactive: vemurafenib -0.02 | [1] 0.026 | [5] 0.12 | volasertib 0.004 | [3] 0.074 | [4] 0.168 | sotrastaurin 0.218

SLC15A4 (UniProt Q8N697)
inactive: vemurafenib 0.018 | [1] 0.018 | barasertib 0.009 | [5] -0.069 | volasertib 0.037 | [3] -0.221 | [4] 0.367 | saracatinib -0.042 | sotrastaurin 0.081

SKIL (UniProt P12757)
inactive: vemurafenib -0.035 | [5] -0.148 | [2] -0.086 | [3] 0.127 | [4] -0.001

SKOR2 (UniProt Q2VWA4)
inactive: vemurafenib 0.066 | [1] -0.027 | [5] 0.087 | volasertib 0.008 | [2] -0.145 | [3] -0.529 | [4] 0.343 | saracatinib -0.03 | sotrastaurin 0.024

SKP2 (UniProt Q13309)
inactive: vemurafenib 0.417 | [1] 0.093 | [5] 0.193 | volasertib 0.05 | [2] 0.025 | [3] 0.121 | [4] -0.008 | saracatinib -0.011 | sotrastaurin 0.032

SESN1 isoform 2 (UniProt Q9Y6P5)
inactive: [1] -0.001 | barasertib 0.101 | [5] 0.248 | volasertib 0.135 | [3] -0.008 | [4] -0.008 | sotrastaurin -0.148

SIRT3 (UniProt Q9NTG7)
inactive: vemurafenib -0.158 | [1] 0.018 | volasertib 0.101 | [2] -0.074 | saracatinib -0.162 | sotrastaurin -0.006

SIMC1 (UniProt Q8NDZ2)
inactive: vemurafenib 0.044 | barasertib 0.363 | [5] -0.034 | [3] 0.129 | [4] 0.088 | sotrastaurin -0.011

SERBP1 isoform 3 (UniProt Q8NC51)
inactive: [1] -0.089 | barasertib -0.058 | [5] 0.121 | volasertib 0.132 | [2] 0.074 | saracatinib -0.033 | sotrastaurin 0.047

SLC19A2 (UniProt O60779)
inactive: [1] -0.025 | barasertib -0.101 | [5] 0.178 | volasertib -0.008 | [3] -0.099 | [4] 0.011 | saracatinib 0.044

SHARPIN (UniProt Q9H0F6)
inactive: vemurafenib -0.027 | [1] 0.184 | [5] -0.041 | volasertib 0.127 | [2] 0.062 | saracatinib 0.016 | sotrastaurin 0.058

SIGIRR (UniProt Q6IA17)
inactive: vemurafenib 0.068 | [1] -0.443 | [5] 0.087 | volasertib 0.011 | [3] 0.09 | [4] -0.097

Taken from above (2 entries):
SHARPIN (UniProt Q9H0F6)
inactive: vemurafenib -0.027 | [1] 0.184 | [5] -0.041 | volasertib 0.127 | [2] 0.062 | saracatinib 0.016 | sotrastaurin 0.058

SIGIRR (UniProt Q6IA17)
inactive: vemurafenib 0.068 | [1] -0.443 | [5] 0.087 | volasertib 0.011 | [3] 0.09 | [4] -0.097

Further entries.

SFXN4 isoform 3 (UniProt Q6P4A7)
inactive: vemurafenib 0.278 | barasertib -0.361 | [5] -0.035 | [2] -0.001 | [3] -0.238 | [4] -0.009 | sotrastaurin -0.03

SIN3B (UniProt O75182)
inactive: vemurafenib -0.042 | [5] -0.092 | [3] -0.061 | [4] 0.267 | sotrastaurin -0.099
